Reference: the supplement of paper PMC7238544
± gives the standard deviation of the averaged measurements. Some of the results follow. The data scatter; read single values as rough.

Columns and labels:
hAMSC donor 1 [1] = assay: Hoechst total cell count ratio vs vehicle control; higher = more cells (less toxicity)
hAMSC donor 2 [2] = assay: as above
hAMSC donor 1 [3] = assay: transgenic luciferase activity (RLU/mg protein) fold change vs vehicle control (ratio); higher = more transgene expression
hAMSC donor 2 [4] = assay: as above
hAMSC donor 1 [5] = assay: transfection efficiency (EGFP+ cells / Hoechst count) fold change vs vehicle control (ratio); hAMSC are human adipose-derived mesenchymal stem cells given an EGFP-luciferase plasmid by lipofection; higher = enhanced transfection
hAMSC donor 2 [6] = assay: as above
[7] = priming compound concentration 0.2 µM
[8] = priming compound concentration 1.7 µM
[9] = priming compound concentration 13 µM

Structure (SMILES) | Hoechst total cell count ratio (hAMSC donor 1 [1]; [7]) | Hoechst total cell count ratio (hAMSC donor 1 [1]; [8]) | Hoechst total cell count ratio (hAMSC donor 1 [1]; [9]) | Hoechst total cell count ratio (hAMSC donor 2 [2]; [7]) | Hoechst total cell count ratio (hAMSC donor 2 [2]; [8]) | Hoechst total cell count ratio (hAMSC donor 2 [2]; [9]) | transgenic luciferase activity (hAMSC donor 1 [3]; [7]) | transgenic luciferase activity (hAMSC donor 1 [3]; [8]) | transgenic luciferase activity (hAMSC donor 1 [3]; [9]) | transgenic luciferase activity (hAMSC donor 2 [4]; [9]) | transfection efficiency (hAMSC donor 1 [5]; [7]) | transfection efficiency (hAMSC donor 1 [5]; [8]) | transfection efficiency (hAMSC donor 1 [5]; [9]) | transfection efficiency (hAMSC donor 2 [6]; [7]) | transfection efficiency (hAMSC donor 2 [6]; [8]) | transfection efficiency (hAMSC donor 2 [6]; [9]) | transgenic luciferase activity (hAMSC donor 2 [4]; [7]) | transgenic luciferase activity (hAMSC donor 2 [4]; [8])
OCc1cc(C(O)CNCCCCCCOCCCCc2ccccc2)ccc1O (stereo not given) [Salmeterol] | 1.2 ± 0.21 | 1.15 ± 0.044 | 1.28 ± 0.12 | 1.23 ± 0.31 | 0.829 ± 0.046 | 1.44 ± 0.066 | 0.687 ± 0.4 | 0.641 ± 0.41 | 0.478 ± 0.088 | 1.11 ± 0.23 | 1.13 ± 0.035 | 0.857 ± 0.19 | 0.631 ± 0.13 | 1.02 ± 0.26 | 1.5 ± 0.13 | 0.956 ± 0.13 | – | –
COc1ccc2cc([C@H](C)C(=O)O)ccc2c1 [Naproxen sodium] | 1.21 ± 0.04 | 1.31 ± 0.12 | 1.13 ± 0.032 | 1.06 ± 0.18 | 0.612 ± 0.019 | 0.962 ± 0.1 | 0.558 ± 0.54 | 0.329 ± 0.2 | 1.1 ± 0.63 | 1.24 ± 0.37 | 0.965 ± 0.12 | 0.885 ± 0.12 | 1.1 ± 0.14 | 1.15 ± 0.26 | 1.39 ± 0.28 | 1.53 ± 0.14 | – | –
COc1ccccc1OCCNCC(O)COc1cccc2[nH]c3ccccc3c12 (stereo not given) [Carvedilol] | 1.18 ± 0.056 | 1.29 ± 0.19 | 1.23 ± 0.058 | 0.915 ± 0.31 | 0.847 ± 0.088 | 1.36 ± 0.049 | 1.21 ± 0.73 | 0.828 ± 0.19 | 1.27 ± 0.46 | 2.32 ± 0.63 | 1.05 ± 0.34 | 1.32 ± 0.48 | 0.99 ± 0.45 | 1.43 ± 0.32 | 1.26 ± 0.14 | 1.04 ± 0.041 | 0.777 ± 0.35 | 1.14 ± 0.3
